## Primary screen of a compound library

The values are deposited in ChEMBL (CHEMBL3988442, “University of Dundee, Small-Polar-MMV Screening Library” (2021)).

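Whole-cell assay for inhibitors of Mycobacterium tuberculosis growth, labelled Cornell in the record; the read-out is not stated. The concentration is filed as 10 mM, unlikely as a test dose, so the dose is not known. Higher means stronger inhibition (inferred from two other growth screens of the library). Of about 53,000 compounds tested this way, about 900 (1.7%) reached 50% or more in at least one test.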

Each number is a percent effect as filed. How 0% and 100% were set is not recorded. Most values in the screen are low, and negative values occur. This is an unselected part of the compounds tested.

| # | compound | percent effect |
|---|---|---|
| 1 | `O=C(O)C(F)(F)F.[H][C@@]12CCCO[C@]1([H])[C@H](NS(C)(=O)=O)CN(Cc1cc(C)on1)C2` | 21.03% |
| 2 | `Cc1nc2ccccn2c1CC(=O)N[C@@H]1CC[C@@H](N2CCOCC2)[C@@H]1O` | -8.269% |
| 3 | `Cc1cccc(C(=O)NCC2CCS(=O)(=O)C2)n1` (centres unmarked) | 4.966% |
| 4 | `CC(=O)NCC(=O)N1Cc2nccn2CC(CN(C)C(C)C)C1.O=C(O)C(F)(F)F` (centres unmarked) | -3.787% |
| 5 | `O=C(c1ccc(F)c(F)c1)N1CCC[C@]2(C[C@@H](OCC3CC3)CO2)C1` | 2.842% |
| 6 | `Cc1cc(C(F)F)nn1CC(=O)NCc1nccn1C` | 39.39% |
| 7 | `CC(C)Cc1cc(NC(=O)c2ccc3[nH]nnc3c2)n(C)n1` | 0.3182% |
| 8 | `CC(C)Oc1cccc2c1c(NC(=O)CN(C)C)nn2CC(F)(F)F` | -7.812% |
| 9 | `COc1ncnc2c1CCN(Cc1nccs1)CC2.O=C(O)C(F)(F)F` | -34.71% |
| 10 | `O=C(NCC(F)(F)F)c1coc(COc2cccc(F)c2)n1` | 71.66% |
| 11 | `CCOc1ncccc1C(=O)N1CCN(C)C2(CCN(C)CC2)C1` | 17.96% |
| 12 | `Cc1nnc(C(C)N2CCN(Cc3ccc(C#N)cc3)CC2)o1` (centres unmarked) | 4.624% |
| 13 | `CCc1nnc(CN2CCCN(C(=O)c3ccccn3)CC2)o1` | -21.05% |
| 14 | `CN(C)C(=O)CN1CCC2(CCN(S(C)(=O)=O)CC2)C1=O` | 7.282% |
| 15 | `NC(=O)c1noc(Cn2ncc3ccccc3c2=O)n1` | -23.99% |
| 16 | `Cn1cc(NC(=O)NC2CCCN(c3ccccc3Cl)C2=O)cn1` (centres unmarked) | -20.61% |
| 17 | `CS(=O)(=O)c1cn[nH]c1C1CCCCN1C(=O)c1cnccn1` (centres unmarked) | -7.971% |
| 18 | `CN(C(=O)Cc1cccs1)C1CCN(c2ccccn2)CC1` | -44.78% |
| 19 | `CCc1cc(CNC(=O)N(C2CC2)C(C)c2ccco2)[nH]n1` (centres unmarked) | 1.527% |
| 20 | `[H][C@@]12COC[C@]1(CNC(=O)c1ccno1)CN(Cc1cc(C)on1)C2` | 10.97% |
| 21 | `O=C(O)C(F)(F)F.[H][C@]12CCN(Cc3nccs3)[C@@]1([H])C[C@@H](C(=O)N1CCOCC1)O2` | 27.46% |
| 22 | `Cc1cc(N2CCC(N(C)Cc3cc(=O)c(O)co3)CC2)nc(C)n1` | 17.99% |
| 23 | `COCCN(C)[C@@H]1c2ccccc2C2(CCNCC2)[C@H]1O` | 6.709% |
| 24 | `Cc1cncc(C(=O)N2CCCC(O)(CN(C)C)CC2)c1` (centres unmarked) | -15.47% |
| 25 | `CC(C)Nc1ncnc2c1CCN(C(=O)NCc1cccnc1)CC2.O=C(O)C(F)(F)F` | 25.58% |
| 26 | `O=C(NCc1nncn1C1CC1)C1(c2ccccc2)CCOCC1` | -5.161% |
| 27 | `CCCN1CC2(CCN(c3ccc(C(C)=O)cn3)CC2)CC1C(=O)O` (centres unmarked) | 0.6901% |
| 28 | `CN1CCC2(CC1)CC(NC(=O)c1csnn1)c1ccccc1O2.O=C(O)C(F)(F)F` (centres unmarked) | -7.16% |
| 29 | `CCOc1ccccc1C(CC(=O)Nc1ccccc1)NC(C)=O` (centres unmarked) | -11.65% |
| 30 | `Cc1cc2ccncc2n1CC1(O)CCN(C(=O)c2ccncc2)CC1` | 23.58% |
| 31 | `CN1CCCN(CCCNC2CCc3cc4c(cc32)OCCO4)CC1` (centres unmarked) | 13.37% |
| 32 | `CC1CCN(c2ncc3c(n2)CN(c2ccc(F)cc2)C3=O)CC1` | -1.047% |
| 33 | `[H][C@@]12CN(c3nc(C)cc(C)n3)C[C@]1([H])N(Cc1ccccc1OC)C(=O)O2` | -24.8% |
| 34 | `CCc1cc(NCc2cccnc2N2CCCCC2)n2ncnc2n1` | 19.54% |
| 35 | `[H][C@@]12CN(Cc3ccccc3C)CC[C@]1([H])N(C(C)=O)C[C@H]2c1ccsc1` | -43.61% |
| 36 | `O=C(Nc1cnn(CC(=O)N2CCCCO2)c1)c1ccsc1` | 2.901% |
| 37 | `C[C@@H]1CN(C(=O)C2CCOCC2)C[C@]12CCN(c1cccnc1)C2=O.O=C(O)C(F)(F)F` | 6.166% |
| 38 | `Cc1csc(-c2cccc(NC(=O)N3CCOCC3)c2)n1` | -78.21% |
| 39 | `CCN(C(=O)CN(Cc1cccc(O)c1)C1CCC(O)CC1)C1CC1` (centres unmarked) | 6.956% |
| 40 | `O=C(O)C(F)(F)F.[H][C@@]12OCCN(CCOCc3ccccc3)[C@@]1([H])CC[C@@H]2OC` | 1.274% |
| 41 | `O=C(NC[C@H]1CC[C@H](c2nnc(-c3cccnc3)o2)CC1)C1CC1` | -13.23% |
| 42 | `CCOc1ncccc1NC(=O)N1CCC(n2cncn2)CC1` | 14.59% |
| 43 | `NCCC1CN(c2nc(-c3ccccc3)nc3c2CCNC3)CCO1` (centres unmarked) | 5.455% |
| 44 | `O=C(O)C(F)(F)F.[H][C@]12C[C@H](C(=O)NC)N(S(C)(=O)=O)[C@@]1([H])CN(C(=O)c1ccccn1)C2` | 9.195% |
| 45 | `CC(C)n1cc(CN2CCCN(C(=O)CC3CCCO3)CC2)cn1` (centres unmarked) | 11.86% |
| 46 | `CC(C)C(C)(C#N)NC(=O)Cn1nnc(-c2cc3ccccc3o2)n1` (centres unmarked) | -21.03% |
| 47 | `[H][C@@]12CN(Cc3ccc(OC)cc3)C[C@]1([H])OCC(=O)N2Cc1nccn1C` | 16.1% |
| 48 | `Cc1nc(C)n(CC2CCCN2CC(=O)N(C)Cc2ccc(C)o2)n1` (centres unmarked) | 18.94% |
| 49 | `CN1CCc2[nH]cnc2C12CCN(C(=O)CCc1cccs1)CC2` | -26.66% |
| 50 | `CCOC(=O)Cc1csc(NC(=O)c2cc(=O)c(OC)c[nH]2)n1` | 28.02% |
| 51 | `O=C(CC1CC1)N1CCC2(COCc3cnc(-c4cccnc4)nc32)C1` (centres unmarked) | 1.515% |
| 52 | `Cc1ccc(C(=O)N2CCOC(c3nc(C(C)(C)C)n[nH]3)C2)c(=O)[nH]1` (centres unmarked) | -10.77% |
| 53 | `O=C1COc2ccc(S(=O)(=O)NCC3CCCO3)c3c2N1CCC3` (centres unmarked) | 5.468% |
| 54 | `O=C(CCc1ccncc1)Nc1ccc(OCC2CC2)cc1` | 23.08% |
| 55 | `O=C(CN1CCCc2cc(F)cc(F)c21)Nc1ccc(Br)cn1` | -1.457% |
| 56 | `COc1cccc(CNCc2ccc(F)c(Cl)c2)c1O` | 2.035% |
| 57 | `O=C(O)C(F)(F)F.O=S(=O)(C1CC1)N1CCCn2cnc(COc3cccnc3)c2C1` | 14.64% |
| 58 | `CCOc1ccccc1C1CCCN1.Cl` (centres unmarked) | -26.19% |
| 59 | `[H][C@@]12CN(C(C)=O)C[C@]1(C(=O)NC)CCC21CCN(S(=O)(=O)CC)CC1` | -22% |
| 60 | `CCCc1n[nH]c(C2CN(C(=O)CCCn3cccn3)CCO2)n1` (centres unmarked) | 3.281% |
| 61 | `CCOc1ccccc1OCCN(C)Cc1nccn1C` | 4.375% |
| 62 | `Cc1cc(NCc2cccnc2)n2nc(C)cc2n1` | -19.78% |
| 63 | `NC(=O)C1CN(c2ncnc3c2Cc2ccccc2OC3)CCO1` (centres unmarked) | 10.41% |
| 64 | `O=C(O)C(F)(F)F.[H][C@]12CCC[C@@H](CN3CCOCC3)[C@@]1([H])CN(c1cc(OC)ncn1)C2` | 11.85% |
| 65 | `CCCn1c(C)c(CC(=O)N(C)CCO)c2c1CC(C)(C)CC2=O` | -3.936% |
| 66 | `CC(Cn1cccn1)NCCCc1nc(-c2cccs2)no1` (centres unmarked) | 3.819% |
| 67 | `Cc1nccc(N[C@H]2CN(CCS(C)(=O)=O)C[C@@H]2C2CC2)n1` | -20.68% |
| 68 | `COc1ccc(NC(=O)N2CCCC(CO)C2)c(C)c1` (centres unmarked) | 29.76% |

Some entries from above, unchanged:

- CCOC(=O)Cc1csc(NC(=O)c2cc(=O)c(OC)c[nH]2)n1 | 28.02%
- [H][C@@]12CN(Cc3ccccc3C)CC[C@]1([H])N(C(C)=O)C[C@H]2c1ccsc1 | -43.61%
- CCOc1ccccc1C1CCCN1.Cl (centres unmarked) | -26.19%
- CC(C)Cc1cc(NC(=O)c2ccc3[nH]nnc3c2)n(C)n1 | 0.3182%